Some of these results come from one statement about several compounds together.
Tested on: nucleic acid polymerase
Experiment: PEM activity summary: primer extension on 45mer, 100mer, 150mer, 222mer DNA templates, gel (Table 2)
Assay type: biochemical
Details: preliminary functional characterization
Protocol: In some instances, the PEM compounds of the present disclosure were tested in primer extension reactions using DNA templates of the following lengths: A) 45mer; B) 100mer; C) 150mer; and D) 222mer.

Row | Structure (SMILES) | Functional Category: PEM effect
1 | Nc1ccc(-n2cc(-c3cccc(-c4cn(-c5ccc(N)cc5)nn4)c3)nn2)cc1 [Compound 22, 4,4′-(1,3-phenylenebis(1H-1,2,3-triazole-4,1-diyl))dianiline] | PEM effect
2 | CC(C)(C)NC(=O)c1cc(-c2cn(-c3ccc(C(=O)O)c(O)c3)nn2)nc(-c2cn(-c3ccc(C(=O)O)c(O)c3)nn2)c1 [Compound 50, 4,4′-((4-(tert-butylcarbamoyl)pyridine-2,6-diyl)bis(1H-1,2,3-triazole-4,1-diyl))bis(2-hydroxybenzoic acid)] | PEM effect
3 | O=C(NCCC(F)(F)F)c1cc(-c2cn(-c3ccc(C(=O)O)c(C(F)(F)F)c3)nn2)nc(-c2cn(-c3ccc(C(=O)O)c(C(F)(F)F)c3)nn2)c1 [Compound 107, 4,4′-((4-((3,3,3-trifluoropropyl)carbamoyl)pyridine-2,6-diyl)bis(1H-1,2,3-triazole-4,1-diyl))bis(2-(trifluoromethyl)benzoic acid)] | PEM effect
4 | CCN(CC)C(=O)c1cc(-c2cn(-c3ccc(C(=O)O)c(C(F)(F)F)c3)nn2)nc(-c2cn(-c3ccc(C(=O)O)c(C(F)(F)F)c3)nn2)c1 [Compound 81, 4,4′-((4-(diethylcarbamoyl)pyridine-2,6-diyl)bis(1H-1,2,3-triazole-4,1-diyl))bis(2-(trifluoromethyl)benzoic acid)] | PEM effect
5 | O=C(NCCCCNC(=O)c1cc(-c2cn(-c3ccc(C(=O)O)c(O)c3)nn2)nc(-c2cn(-c3ccc(C(=O)O)c(O)c3)nn2)c1)c1cc(-c2cn(-c3ccc(C(=O)O)c(O)c3)nn2)nc(-c2cn(-c3ccc(C(=O)O)c(O)c3)nn2)c1 [Compound 71, 4,4′,4″,4″-((((butane-1,4-diylbis(azanediyl))bis(carbonyl))bis(pyridine-4,2,6-triyl))tetrakis(1H-1,2,3-triazole-4,1-diyl))tetrakis(2-hydroxybenzoic acid)] | PEM effect
6 | O=C(O)c1ccc(-n2nnc(-c3cccc(-c4nnn(-c5ccc(C(=O)O)c(O)c5)c4I)n3)c2I)cc1O [Compound 31, 4,4′-((pyridine-2,6-diyl)bis(5-iodo-1H-1,2,3-triazole-4,1-diyl))bis(2-hydroxybenzoic acid)] | PEM effect
7 | O=C(O)c1ccc(-n2cc(-c3cc(C(=O)N4CCOCC4)cc(-c4cn(-c5ccc(C(=O)O)c(O)c5)nn4)n3)nn2)cc1O [Compound 51, 4,4′-((4-(morpholine-4-carbonyl)pyridine-2,6-diyl)bis(1H-1,2,3-triazole-4,1-diyl))bis(2-hydroxybenzoic acid)] | PEM effect
8 | O=C(NCCO)c1cc(-c2cn(-c3ccc(C(=O)O)c(C(F)(F)F)c3)nn2)nc(-c2cn(-c3ccc(C(=O)O)c(C(F)(F)F)c3)nn2)c1 [Compound 105, 4,4′-((4-((2-hydroxyethyl)carbamoyl)pyridine-2,6-diyl)bis(1H-1,2,3-triazole-4,1-diyl))bis(2-(trifluoromethyl)benzoic acid)] | PEM effect
9 | N=C(N)NC(=O)c1cc(-c2cn(-c3ccc(C(=O)O)c(O)c3)nn2)nc(-c2cn(-c3ccc(C(=O)O)c(O)c3)nn2)c1 [Compound 56, 4,4′-((4-(carbamimidoylcarbamoyl)pyridine-2,6-diyl)bis(1H-1,2,3-triazole-4,1-diyl))bis(2-hydroxybenzoic acid)] | PEM effect
10 | O=C(NO)c1ccc(-n2cc(-c3cccc(-c4cn(-c5ccc(C(=O)NO)c(O)c5)nn4)n3)nn2)cc1O [Compound 34, 4,4′-(pyridine-2,6-diylbis(1H-1,2,3-triazole-4,1-diyl))bis(N,2-dihydroxybenzamide)] | PEM effect
11 | CCCN(CCC)C(=O)c1cc(-c2cn(-c3ccc(C(=O)O)c(O)c3)nn2)nc(-c2cn(-c3ccc(C(=O)O)c(O)c3)nn2)c1 [Compound 61, 4,4′-((4-(dipropylcarbamoyl)pyridine-2,6-diyl)bis(1H-1,2,3-triazole-4,1-diyl))bis(2-hydroxybenzoic acid)] | PEM effect
12 | O=C(O)c1ccc(-n2cc(-c3cc(C(=O)N4CCC4)cc(-c4cn(-c5ccc(C(=O)O)c(O)c5)nn4)n3)nn2)cc1O [Compound 84, 4,4′-((4-(azetidine-1-carbonyl)pyridine-2,6-diyl)bis(1H-1,2,3-triazole-4,1-diyl))bis(2-hydroxybenzoic acid)] | PEM effect
13 | CCC(C)N(C(=O)c1cc(-c2cn(-c3ccc(C(=O)O)c(O)c3)nn2)nc(-c2cn(-c3ccc(C(=O)O)c(O)c3)nn2)c1)C(C)CC (centres unmarked) [Compound 62, 4,4′-((4-(di-sec-butylcarbamoyl)pyridine-2,6-diyl)bis(1H-1,2,3-triazole-4,1-diyl))bis(2-hydroxybenzoic acid)] | PEM effect
14 | NC(=O)c1cc(-c2cn(-c3ccc(C(=O)O)c(O)c3)nn2)nc(-c2cn(-c3ccc(C(=O)O)c(O)c3)nn2)c1 [Compound 19, 4,4′-((4-carbamoylpyridine-2,6-diyl)bis(1H-1,2,3-triazole-4,1-diyl))bis(2-hydroxybenzoic acid)] | PEM effect
15 | O=C(O)c1ccc(-n2cc(-c3cccc(-c4cn(-c5ccc(C(=O)O)c(O)c5)nn4)c3)nn2)cc1O [Compound 3, 4,4′-(1,3-phenylenebis(1H-1,2,3-triazole-4,1-diyl))bis(2-hydroxybenzoic acid)] | PEM effect
16 | CCNC(=O)c1cc(-c2cn(-c3ccc(C(=O)O)c([N+](=O)[O-])c3)nn2)nc(-c2cn(-c3ccc(C(=O)O)c([N+](=O)[O-])c3)nn2)c1 [Compound 106, 4,4′-((4-(ethylcarbamoyl)pyridine-2,6-diyl)bis(1H-1,2,3-triazole-4,1-diyl))bis(2-nitrobenzoic acid)] | PEM effect
17 | CCCCN(CCCC)C(=O)c1cc(-c2cn(-c3ccc(C(=O)O)c(O)c3)nn2)nc(-c2cn(-c3ccc(C(=O)O)c(O)c3)nn2)c1 [Compound 65, 4,4′-((4-(dibutylcarbamoyl)pyridine-2,6-diyl)bis(1H-1,2,3-triazole-4,1-diyl))bis(2-hydroxybenzoic acid)] | PEM effect
18 | COc1ccc(-n2cc(-c3cccc(-c4cn(-c5ccc(OC)cc5)nn4)n3)nn2)cc1 [Compound 27, 2,6-bis(1-(4-methoxyphenyl)-1H-1,2,3-triazol-4-yl)pyridine] | PEM effect
19 | CCNC(=O)c1cc(-c2cn(-c3ccc(C(=O)O)c(Cl)c3)nn2)nc(-c2cn(-c3ccc(C(=O)O)c(Cl)c3)nn2)c1 [Compound 121, 4,4′-((4-(ethylcarbamoyl)pyridine-2,6-diyl)bis(1H-1,2,3-triazole-4,1-diyl))bis(2-chlorobenzoic acid)] | PEM effect
20 | NC(=O)c1ccc(-n2cc(-c3cccc(-c4cn(-c5ccc(C(N)=O)c(O)c5)nn4)n3)nn2)cc1O [Compound 35, 4,4′-(pyridine-2,6-diylbis(1H-1,2,3-triazole-4,1-diyl))bis(2-hydroxybenzamide)] | PEM effect
